In all, about 320,000 compounds went through this assay and about 22,000 (6.9%) were called active. Inconclusive results, whose numbers are uncertain, are shown with a selection of clear calls. The call rests on the fitted dose curve; in most records, active means well fitted inhibition curve with a large enough effect; inconclusive means small, poorly fitted or top-dose-only effect, or another doubt; inactive means no such curve, though single readings can be large or run the other way. Where the call is inconclusive, the potency comes from a doubtful curve fit.
Test: Primary qHTS for delayed death inhibitors of the malarial parasite plastid, 96 hour incubation
Conditions: P. falciparum luciferase reporter growth; series mostly up to 28.7 µM; activity change, negative = inhibition: at the top concentration
Summary of the method: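 Erythrocytes infected with luciferase-expressing P. falciparum were dispensed at 2% hematocrit and 0.05% parasitemia (final), then incubated with compounds 96 hours at 37 C in 5% CO2. Luminescence after detection reagent addition reported growth.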
With `O=C(CNS(=O)(=O)N1CCOCC1)N/N=C/c1cccnc1` the Potency was inconclusive: 0.0026 µM [inhibitor, full curve, poor fit]. In the case of `CCn1c(CCNC(=O)c2ccc(C)cc2)n[nH]c1=S`, the “activity change, negative = inhibition” value is reported as inactive: 10.9%. With `Cc1ccc2sc3ccc(NC(=O)c4ccccc4Cl)cc3c(=O)c2c1` the Potency was inconclusive: 0.522 µM [inhibitor, full curve, poor fit]. For `O=C(Nc1cccc(F)c1)N1CCC(c2ccccc2)CC1`, the “activity change, negative = inhibition” value was inactive: -15.1%. For `Brc1cccc(-c2nc(-c3ccncc3)no2)c1`, the “activity change, negative = inhibition” value was inactive: -6.98%. For `O=C(CCNS(=O)(=O)c1ccc(Br)cc1)NCCCSc1ccccc1`, the Potency was inconclusive: 9.28 µM [inhibitor, partial curve, poor fit]. With `CCc1ccc(N2CC(C(=O)NC3CC3)CC2=O)cc1` (stereo not given) the Potency was inconclusive: 18.5 µM [inhibitor, single point]. In the case of `CC1(C(=O)NCCN2CCOCC2)C=CC2(CCCCC2)N1C(=O)c1ccccc1` (stereo not given), the Potency is reported as inconclusive: 18.5 µM [inhibitor, single point]. In the case of `COc1cccc(NC(C)C(=O)Nc2cc([N+](=O)[O-])ccc2Cl)c1` (stereo not given), the Potency is reported as active: 14.7 µM. In the case of `CN(C)C(=O)CN1CCN(Cc2cn(C)nc2-c2ccc3c(c2)OCCO3)CC1`, the Potency is reported as active: 10.4 µM. In the case of `COc1ccc(N(CC(=O)N/N=C/c2cccnc2)S(=O)(=O)c2ccc(C)cc2)cc1OC`, the Potency is reported as inconclusive: 18.5 µM [inhibitor, single point]. With `CCOC(=O)COc1c(Cl)cc(C2NC(=S)NC(c3ccccc3)=C2C(C)=O)cc1OC` (stereo not given) the Potency was inconclusive: 18.5 µM [inhibitor, single point]. For `CC(C)OC(=O)CC1C(=O)NCCN1C(=O)COc1ccc(C(C)(C)C)cc1` (stereo not given), the “activity change, negative = inhibition” value was inactive: 3.49%. For `Cc1ccc(C)c2c1cc(C)c1nnc(SCC(=O)c3cccs3)n12`, the Potency was inconclusive: 5.22 µM [inhibitor, partial curve, poor fit]. For `CCN(CC)c1ccc(-n2c(C)cc(C=O)c2C)cc1`, the Potency was inconclusive: 18.5 µM [inhibitor, single point]. For `COc1cccc(/C=N/NC(=O)CNC(=O)c2ccco2)c1O`, the “activity change, negative = inhibition” value was inactive: 22.2%. In the case of `CC(C)(C)OC(=O)NCCCCCNC(=O)c1[nH]cnc1C(=O)Nc1ccc(Cl)cc1`, the Potency is reported as inconclusive: 2.94 µM [inhibitor, single point]. For `COc1ccc(C2CC(c3cccs3)=NN2C(=O)CSC2=NCCS2)cc1` (stereo not given), the Potency was inconclusive: 13.1 µM [inhibitor, partial curve]. With `CC(=O)NC1(C2CCCCC2=O)CCCCC1` (stereo not given) the Potency was inconclusive: 18.5 µM [inhibitor, single point]. With `COc1cccc(/C=C2\Oc3cc(OCC(=O)N4Cc5ccccc5C[C@H]4C(=O)O)ccc3C2=O)c1` the “activity change, negative = inhibition” value was inactive: 22.5%. In the case of `COc1cccc(N2CCN(c3ccc4nnc(CCC(=O)Nc5ccccn5)n4n3)CC2)c1`, the Potency is reported as inconclusive: 11.7 µM [inhibitor, single point]. In the case of `CN(c1ccccc1)c1ccc(/C=N/NC(=O)CC#N)cc1`, the “activity change, negative = inhibition” value is reported as inactive: -18.4%. In the case of `CCC(=Nc1ccccc1N)c1c(O)[nH]c(=O)[nH]c1=O`, the Potency is reported as inconclusive: 11.7 µM [inhibitor, partial curve]. In the case of `Cc1ccc(-c2cn3nc(-c4ccccc4)c(-c4ccccc4)nc3n2)cc1`, the “activity change, negative = inhibition” value is reported as inactive: -17.6%. In the case of `OCCC1CN(CC#Cc2ccccc2)CCN1C1CCCC1` (stereo not given), the Potency is reported as inconclusive: 1.47 µM [inhibitor, partial curve, poor fit]. In the case of `Cc1ccc(C(=O)NCc2ccccn2)cc1S(=O)(=O)N1CCOCC1`, the Potency is reported as inconclusive: 11.7 µM [inhibitor, single point]. For `Cn1ccc2cc3c(cc21)CCN3C(=O)Nc1cccnc1`, the Potency was inconclusive: 3.7 µM [inhibitor, single point]. With `CCN(CC)c1ccc(/C=N/NC(=O)CCC(=O)NCc2ccccc2)c(O)c1` the Potency was inconclusive: 14.7 µM [inhibitor, partial curve, poor fit]. For `CCOc1cc(/C=N/NC(=O)c2ccccc2-n2cccc2)ccc1O`, the “activity change, negative = inhibition” value was inactive: 1.54%. In the case of `CC(=O)Nc1ccc(C(=O)CCl)cc1`, the “activity change, negative = inhibition” value is reported as inactive: 42.3%. With `O=C1CCC(C(=O)NCc2cccnc2)N1` (stereo not given) the Potency was inconclusive: 18.5 µM [inhibitor, single point]. For `O=C1OC(CO)C(O)C(O)C1O` (stereo not given), the “activity change, negative = inhibition” value was inactive: 0.843%. With `O=c1[nH]c(=S)n(-c2ccc(Br)cc2)c(O)c1C=Nc1ccc(N2CCOCC2)cc1` the “activity change, negative = inhibition” value was inactive: -13%. In the case of `Cc1ccc(Nc2nc(C)cs2)cc1`, the Potency is reported as inconclusive: 4.65 µM [inhibitor, partial curve]. In the case of `CC1(C)Cc2cccc(OCC(=O)Nc3cc(S(C)(=O)=O)ccc3Cl)c2O1`, the Potency is reported as inconclusive: 5.22 µM [inhibitor, partial curve, poor fit]. With `O=C(NCCc1cccs1)c1cccs1` the Potency was inconclusive: 16.5 µM [inhibitor, single point]. With `O=C(Nc1ccc(S(=O)(=O)N2CCOCC2)cc1)C1CCN(S(=O)(=O)c2ccc(F)cc2)CC1` the Potency was inconclusive: 2.62 µM [inhibitor, partial curve]. For `CCCCc1nc2sc3c(c2c(=O)n1NC(=O)c1ccco1)CC(C)(C)OC3`, the Potency was inconclusive: 16.5 µM [inhibitor, single point]. With `CCCCNS(=O)(=O)c1ccc2nc(-c3cccnc3)cc(C(=O)NC3CC3)c2c1` the Potency was inconclusive: 2.08 µM [inhibitor, partial curve, poor fit]. In the case of `CC(SC1=NCCS1)C(=O)Nc1nnc(-c2ccc(Cl)cc2)s1` (stereo not given), the “activity change, negative = inhibition” value is reported as inactive: 28.7%. With `Cc1cccc(Nc2nnc(-c3ccc(C(=O)N4C[C@H]5C[C@H](C4)c4cccc(=O)n4C5)cc3)c3ccccc23)c1` the Potency was active: 3.7 µM. In the case of `CN(C)CCCn1c2c(c(SCC(=O)Nc3cccc4ccccc34)nc1=O)CCCC2`, the Potency is reported as inconclusive: 11.7 µM [inhibitor, single point]. For `O/N=C1\CCCc2ccc3ccccc3c21`, the “activity change, negative = inhibition” value was inactive: 23.3%. For `Cc1cc(C(=O)CSc2nnc(-c3ccco3)o2)c(C)n1Cc1ccco1`, the Potency was inconclusive: 14.7 µM [inhibitor, partial curve, poor fit]. In the case of `COc1ccc(-n2ccc(=O)c(C(=O)Nc3ccc(S(=O)(=O)Nc4nccs4)cc3)n2)cc1`, the Potency is reported as inconclusive: 7.38 µM [inhibitor, partial curve, poor fit]. In the case of `O=C(NN1C(=O)c2ccccc2NC1c1ccccn1)c1ccc([N+](=O)[O-])cc1` (stereo not given), the “activity change, negative = inhibition” value is reported as inactive: 31.9%. In the case of `CCOC(=O)c1c(C)c(C(=O)NCCc2ccccc2)c(C)n1C`, the “activity change, negative = inhibition” value is reported as inactive: -1.86%. In the case of `O=C(NCCCN1CCCC1=O)C1CCC(CNS(=O)(=O)c2ccc(Cl)cc2)CC1` (stereo not given), the Potency is reported as active: 11.7 µM. With `C/C=C(\C)C(=O)NCCN1C2=NC[C@H](Cc3ccc(O)cc3)N2C[C@H]1Cc1ccc(O)cc1` the Potency was inconclusive: 0.0586 µM [inhibitor, full curve]. In the case of `CCOc1ccc(C(=O)Nc2cccc(-c3ccc(N4CCOCC4)nn3)c2)cc1OCC`, the Potency is reported as inconclusive: 0.928 µM [inhibitor, full curve, poor fit]. In the case of `COc1ccc(CN2CC34C=CC(O3)C(C(=O)O)C4C2=O)cc1` (stereo not given), the Potency is reported as inconclusive: 4.15 µM [inhibitor, single point]. In the case of `O=C(O)CCCCCNS(=O)(=O)c1c(Cl)cccc1Cl`, the Potency is reported as inconclusive: 0.0026 µM [inhibitor, full curve, poor fit]. With `ClCC1=Nc2cccc3cccc(c23)N1` the Potency was active: 4.65 µM. For `O=C(O)c1cc(OCc2ccccc2)cc(OCc2ccccc2)c1`, the “activity change, negative = inhibition” value was inactive: 14.4%. In the case of `Cc1c(Cc2ccccc2)sc(NC(=O)/C=C/c2cccc3ccccc23)c1C(N)=O`, the Potency is reported as inconclusive: 10.4 µM [inhibitor, single point]. For `CC(C)c1ccc(N=C(N)N=C(N)N)cc1`, the Potency was inconclusive: 3.7 µM [inhibitor, partial curve, poor fit]. In the case of `CC(C)[C@H](NC(=O)[C@@H]1CSC2c3ccccc3C(=O)N21)C(=O)N1CCCCC1` (stereo not given in full), the Potency is reported as inconclusive: 11.7 µM [inhibitor, partial curve]. In the case of `COc1cc(/C=C/C(=O)O)cc(S(=O)(=O)NCCCC(=O)O)c1OC`, the “activity change, negative = inhibition” value is reported as inactive: -11%. In the case of `Cc1nn(CC(=O)Nc2ccccc2C(F)(F)F)c(=O)c2cccn12`, the Potency is reported as inconclusive: 1.85 µM [inhibitor, single point]. With `O=C(Nc1cccnc1)c1ccco1` the “activity change, negative = inhibition” value was inactive: 38.1%. With `COc1ccc(NC(=S)N2CCOCC2)c(OC)c1` the Potency was inconclusive: 13.1 µM [inhibitor, single point]. For `CCCN(CCC)CCNc1c(NC2CCN(C(=O)OCC)CC2)c(=O)c1=O`, the Potency was inconclusive: 8.28 µM [inhibitor, partial curve, poor fit]. With `Cc1cccc2c1c(N=NC(N)=S)c(O)n2C1OC(CO)C(O)C(O)C1O` (stereo not given) the Potency was inconclusive: 11.7 µM [inhibitor, single point]. With `CCOC(=O)c1cnc2c(-c3ccc(F)cc3)cnn2c1C(F)(F)F` the Potency was inconclusive: 11.7 µM [inhibitor, partial curve]. For `O=C(NCc1cccnc1)c1ccc2c(c1)OCO2`, the Potency was active: 9.28 µM. For `CCOC(=O)C1=C(C)NC(=O)CC1c1ccccc1` (stereo not given), the Potency was inconclusive: 11.7 µM [inhibitor, partial curve, poor fit]. With `Cc1ccc(OCc2cc(C(=O)NCC3COCCO3)no2)cc1C` (stereo not given) the Potency was active: 10.4 µM. In the case of `Cc1ccc(C(=O)N2CCC(C(=O)NCc3ccco3)CC2)cc1`, the Potency is reported as inconclusive: 11.7 µM [inhibitor, partial curve, poor fit]. In the case of `Cc1ccc(S(=O)(=O)Nc2ccc(NC(=O)c3cccnc3)cc2)cc1`, the Potency is reported as inconclusive: 9.28 µM [inhibitor, single point]. For `Cc1nc2ccc(NC(=O)N3CCSCC3)cc2s1`, the Potency was inconclusive: 9.28 µM [inhibitor, partial curve, poor fit].

Reference: PubChem BioAssay AID504834 (National Center for Advancing Translational Sciences (NCATS), 2011)
On the % scale 0 is the no-effect control and ±100 the full control effect; potency means the concentration at half of the fitted maximal effect.
